The record followed here is patent US20190359687A1.

Chains of the proteins cited; added tags and fusions are not shown. Residues count along the entry.
UniProt P02724, residues 20-150: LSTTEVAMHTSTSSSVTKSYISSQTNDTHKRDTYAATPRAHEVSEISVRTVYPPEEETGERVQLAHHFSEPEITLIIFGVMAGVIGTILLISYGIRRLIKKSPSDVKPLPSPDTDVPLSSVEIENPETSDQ

B1: TPP-7792 scFv (scFv)
scFv: DIQLTQSPSFLSASVGDRVTITCRASSSVRYIYWFQQKPGKAPKLLIYATSFRQSGVPSRFSGSGSGTEYTLTISSLQPEDFATYYCHQRNSFPYTFGQGTKLEIKEVQLVQSGAEVKKPGASVKVSCKASGYTFTTYAIHWVRQAPGQGLEWMGYINPSSGYTRYNPKFKGRVTMTRDKSTSTAYMELRSLRSDDTAVYYCWTGTRDYWGQGTTVTVSS
B2: Hu6C12-22 (antibody, V domains shown)
VH: EVQLVQSGAEVKKPGASVKVSCKASGYTFTTYTIHWVRQAPGQGLEWMGYINPSSDYTRYNPKFKDRVTLTTDTSTSTAYMELRSLRSDDTAVYYCATGTRDYWGQGTTVTVSS
VL: DIQLTQSPSFLSASVGDRVTITCSAASSVSYIYWFQQKPGKAPKLLIYSTSTLPSGVPSRFSGSGSGTEYTLTISSLQPEDFATYYCHQRNSFPFTFGQGTKLEIK
B3: Hu6C12-6 (antibody, V domains shown)
VH: B2 VH with A97Q
VL: B2 VL with F35Y, Y70F
B4: Hu6C12-15 (antibody, V domains shown)
VH: B2 VH with A97Q
VL: B2 VL with F35Y
B5: Hu6C12-5 (antibody, V domains shown)
VH: B2 VH
VL: B2 VL with F35Y, Y70F
B6: Hu6C12-23 (antibody, V domains shown)
VH: B2 VH with A97Q
VL: B2 VL
B7: TPP-7790 scFv (scFv)
scFv: B1 scFv with R53L, G172H
B8: TPP-7793 scFv (scFv)
scFv: B1 scFv with R30S, F52T, R53L, T137R, A139T
B9: TPP-7795 scFv (scFv)
scFv: B1 scFv with R30S, R53L, A139T, S160K, Y163W, W203Q
B10: TPP-7794 scFv (scFv)
scFv: B1 scFv with G172H
B11: TPP-7782 scFv (scFv)
scFv: B1 scFv with A139T, W203Q
B12: TPP-7783 scFv (scFv)
scFv: B1 scFv with Q54R, G172H
B13: TPP-7778 scFv (scFv)
scFv: B1 scFv with F52T, R53L, G172H, W203Q
B14: TPP-7781 scFv (scFv)
scFv: B1 scFv with F52T, R53L, A139T, S160K, Y163W, W203Q
B15: TPP-7797 scFv (scFv)
scFv: B1 scFv with A139T, T206R

Numbering of substitutions follows the chain as printed. These are yes or no findings as the source states them, for the method shown. Some binding calls cover weakened binding; strength is not graded here.

In one assay the target is human glycophorin A in the red blood cell membrane (human) (UniProt P02724). As to the kind of experiment: FACS on RBC of huGPA/HemA transgenic mice (muTGRBC), 1E+6 RBC/mL, scFv titrated.
As for B1, the binding result is “binds”.

The next assay shares this target. As to the kind of experiment: FACS, IgG.
As to B2, the binding result is “binds”.

In the case of B3, the binding result is “binds”.

On to B4, for which the binding entry was “binds”.

In the case of B5, the binding result is “binds”.

On to B6, for which the binding entry is “binds”.

For the next assay the target is unchanged. As to the kind of experiment: FACS, RBC of huGPA/HemA mice and human RBC. (In general: Flow cytometry measures light scatter and fluorescence of single cells or particles in a stream.)
As to B1, the binding entry is “binds”.

A further assay has the same target. The experiment in a line: binding of scFv to intact human RBC (recap in Example 10).
As for B1, the binding entry is reported as “binds”.

On to B7, for which the binding entry is “binds”.

On to B8, for which the binding entry was “binds”.

The target is the same in the next assay. The experiment in a line: intact human RBC, scFv left in supernatant by ELISA. (ELISA stands for enzyme-linked immunosorbent assay.)
In the case of B1, the binding result is given as “binds”.

Take B9: the binding result is listed as “binds”.

B7: the binding result is on record as “binds”.

Take B10: the binding entry is “binds”.

With B11, the binding entry is recorded as “binds”.

As to B12, the binding entry is “binds”.

In the case of B13, the binding entry was “binds”.

As for B14, the binding result is “binds”.

On to B8, for which the binding result is “binds”.

Consider B15, for which the binding entry is “binds”.

For another assay the target is unchanged. The experiment in a line: Biacore, human RBC membranes. On the technique in general: SPR reads the build-up and loss of mass on a sensor chip optically.
Consider B1, for which the binding result is recorded as “binds”.

Another assay shares this target. The experiment in a line: FACS on normal human RBC, 1E+6 RBC/mL, scFv titrated.
On to B1, for which the binding entry is on record as “binds”.
